Laboratory results from paper PMC12611769, “Phase-separated NDF−FACT condensates facilitate transcription elongation on chromatin” (Nature Cell Biology, 2025).

Sequences of proteins named here, by UniProt entry; tags and fusion partners are left off. A change or cut given only in a name is not applied to a line headed by its entry.
UniProt Q49A26: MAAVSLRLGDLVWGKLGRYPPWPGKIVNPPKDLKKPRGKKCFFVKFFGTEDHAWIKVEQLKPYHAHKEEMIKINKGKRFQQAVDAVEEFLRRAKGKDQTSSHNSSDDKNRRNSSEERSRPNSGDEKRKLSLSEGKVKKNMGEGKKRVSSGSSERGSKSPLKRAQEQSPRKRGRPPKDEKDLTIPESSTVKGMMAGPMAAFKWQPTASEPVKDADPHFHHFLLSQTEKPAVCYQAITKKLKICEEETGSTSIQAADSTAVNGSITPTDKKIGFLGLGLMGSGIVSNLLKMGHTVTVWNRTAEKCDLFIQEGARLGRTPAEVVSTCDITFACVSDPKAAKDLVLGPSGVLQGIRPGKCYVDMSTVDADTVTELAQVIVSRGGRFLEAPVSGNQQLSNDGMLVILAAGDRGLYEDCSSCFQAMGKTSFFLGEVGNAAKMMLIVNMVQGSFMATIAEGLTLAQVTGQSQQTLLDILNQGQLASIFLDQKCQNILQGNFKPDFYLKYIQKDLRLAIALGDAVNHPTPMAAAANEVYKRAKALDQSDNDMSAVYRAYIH
UniProt Q9Y5B9: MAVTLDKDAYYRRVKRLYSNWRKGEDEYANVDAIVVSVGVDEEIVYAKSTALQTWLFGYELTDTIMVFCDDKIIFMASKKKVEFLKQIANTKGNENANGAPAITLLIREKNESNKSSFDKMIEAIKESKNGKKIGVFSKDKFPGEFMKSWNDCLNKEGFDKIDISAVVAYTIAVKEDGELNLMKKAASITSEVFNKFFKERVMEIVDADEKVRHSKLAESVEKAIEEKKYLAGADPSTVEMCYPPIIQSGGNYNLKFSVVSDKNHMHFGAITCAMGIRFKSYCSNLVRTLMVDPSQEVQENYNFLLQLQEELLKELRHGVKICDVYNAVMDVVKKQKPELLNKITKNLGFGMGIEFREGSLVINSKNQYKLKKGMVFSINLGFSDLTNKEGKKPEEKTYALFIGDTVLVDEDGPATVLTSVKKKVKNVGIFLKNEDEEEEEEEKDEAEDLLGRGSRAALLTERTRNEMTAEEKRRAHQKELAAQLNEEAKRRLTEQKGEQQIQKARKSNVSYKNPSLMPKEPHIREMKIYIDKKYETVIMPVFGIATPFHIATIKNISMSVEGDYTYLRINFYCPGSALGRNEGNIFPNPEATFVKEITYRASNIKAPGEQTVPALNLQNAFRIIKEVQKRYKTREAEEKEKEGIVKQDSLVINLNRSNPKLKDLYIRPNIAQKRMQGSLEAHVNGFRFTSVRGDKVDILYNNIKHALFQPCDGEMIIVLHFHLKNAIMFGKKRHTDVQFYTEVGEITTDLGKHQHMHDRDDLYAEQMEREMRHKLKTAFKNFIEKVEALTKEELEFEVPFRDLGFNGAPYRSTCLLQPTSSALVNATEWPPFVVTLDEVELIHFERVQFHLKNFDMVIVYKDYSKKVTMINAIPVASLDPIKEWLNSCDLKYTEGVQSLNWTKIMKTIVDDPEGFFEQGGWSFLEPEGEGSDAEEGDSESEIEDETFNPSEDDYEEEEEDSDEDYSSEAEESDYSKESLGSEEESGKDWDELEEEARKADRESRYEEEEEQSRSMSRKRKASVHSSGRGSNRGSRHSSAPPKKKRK

Target: N-terminal PWWP domain of NDF, His6-tagged truncate (human) (UniProt Q49A26)
Assay: pull-down; Ni-NTA beads, His6-tagged NDF (WT, truncates or mutants; 40 pmol) as bait with 20 pmol Flag-tagged hSpt16 or FACT in 300 µl of 10 mM Tris-HCl pH 7.5, 200 mM NaCl, 0.2% Nonidet P-40, 10% glycerol, 4 °C 3 h; SDS-PAGE, silver staining; both purified

Substance: Flag-tagged hSpt16 (from UniProt Q9Y5B9 1-1047)
- binding: binds

Results are given in words; binding and its absence hold for the method and conditions named. A result given as binding can be weak or reduced; the word gives no strength.
